Test results: ChEMBL document CHEMBL1157379, “Transcriptional response of Candida parapsilosis following exposure to farnesol” (2007)
This continues a long series; more values of the same kind are listed elsewhere.

What was measured:
Type in all cases: functional
Candida parapsilosis [1] = assay: Decrease in CGD gene ortholog accession number orf19.6804 expression in Candida parapsilosis CLIB214 at 50 uM after 2 hrs by microarray based transcriptional profiling relative to control
Candida parapsilosis [2] = assay: Increase in NADH51 gene expression in Candida parapsilosis CLIB214 at 50 uM after 2 hrs by microarray based transcriptional profiling relative to control
Candida parapsilosis [3] = assay: Increase in PRT1 gene expression in Candida parapsilosis CLIB214 at 50 uM after 2 hrs by microarray based transcriptional profiling relative to control
Candida parapsilosis [4] = assay: Increase in CGD gene ortholog accession number orf19.2575 expression in Candida parapsilosis CLIB214 at 50 uM after 2 hrs by microarray based transcriptional profiling relative to control
Candida parapsilosis [5] = assay: Decrease in CGD gene ortholog accession number orf19.6816 expression in Candida parapsilosis CLIB214 at 50 uM after 2 hrs by microarray based transcriptional profiling relative to control
Candida parapsilosis [6] = assay: Increase in CGD gene ortholog accession number orf19.1092 expression in Candida parapsilosis CLIB214 at 50 uM after 2 hrs by microarray based transcriptional profiling relative to control
Candida parapsilosis [7] = assay: Decrease in CGD gene ortholog accession number orf19.355 expression in Candida parapsilosis CLIB214 at 50 uM after 2 hrs by microarray based transcriptional profiling relative to control
Candida parapsilosis [8] = assay: Decrease in CGD gene ortholog accession number orf19.5952 expression in Candida parapsilosis CLIB214 at 50 uM after 2 hrs by microarray based transcriptional profiling relative to control
Candida parapsilosis [9] = assay: Decrease in CGD gene ortholog accession number orf19.5769 expression in Candida parapsilosis CLIB214 at 50 uM after 2 hrs by microarray based transcriptional profiling relative to control
Candida parapsilosis [10] = assay: Increase in CGD gene ortholog accession number orf19.323 expression in Candida parapsilosis CLIB214 at 50 uM after 2 hrs by microarray based transcriptional profiling relative to control
Candida parapsilosis [11] = assay: Decrease in CGD gene ortholog accession number orf19.3835 expression in Candida parapsilosis CLIB214 at 50 uM after 2 hrs by microarray based transcriptional profiling relative to control
Candida parapsilosis [12] = assay: Decrease in UME6 gene expression in Candida parapsilosis CLIB214 at 50 uM after 2 hrs by microarray based transcriptional profiling relative to control
Candida parapsilosis [13] = assay: Decrease in CGD gene ortholog accession number orf19.273 expression in Candida parapsilosis CLIB214 at 50 uM after 2 hrs by microarray based transcriptional profiling relative to control
Candida parapsilosis [14] = assay: Decrease in CGD gene ortholog accession number orf19.2342 expression in Candida parapsilosis CLIB214 at 50 uM after 2 hrs by microarray based transcriptional profiling relative to control
Candida parapsilosis [15] = assay: Increase in CGD gene ortholog accession number orf19.631 expression in Candida parapsilosis CLIB214 at 50 uM after 2 hrs by microarray based transcriptional profiling relative to control
Candida parapsilosis [16] = assay: Decrease in YHB1 gene expression in Candida parapsilosis CLIB214 at 50 uM after 2 hrs by microarray based transcriptional profiling relative to control
Candida parapsilosis [17] = assay: Decrease in DPB2 gene expression in Candida parapsilosis CLIB214 at 50 uM after 2 hrs by microarray based transcriptional profiling relative to control
Candida parapsilosis [18] = assay: Decrease in GAL7 gene expression in Candida parapsilosis CLIB214 at 50 uM after 2 hrs by microarray based transcriptional profiling relative to control
Candida parapsilosis [19] = assay: Decrease in SFC1 gene expression in Candida parapsilosis CLIB214 at 50 uM after 2 hrs by microarray based transcriptional profiling relative to control
Candida parapsilosis [20] = assay: Decrease in CGD gene ortholog accession number orf19.4760 expression in Candida parapsilosis CLIB214 at 50 uM after 2 hrs by microarray based transcriptional profiling relative to control
Candida parapsilosis [21] = assay: Increase in CGD gene ortholog accession number orf19.2484 expression in Candida parapsilosis CLIB214 at 50 uM after 2 hrs by microarray based transcriptional profiling relative to control
Candida parapsilosis [22] = assay: Increase in CGD gene ortholog accession number orf19.1954 expression in Candida parapsilosis CLIB214 at 50 uM after 2 hrs by microarray based transcriptional profiling relative to control
Candida parapsilosis [23] = assay: Decrease in CGD gene ortholog accession number orf19.6713 expression in Candida parapsilosis CLIB214 at 50 uM after 2 hrs by microarray based transcriptional profiling relative to control
Candida parapsilosis [24] = assay: Increase in CGD gene ortholog accession number orf19.7234 expression in Candida parapsilosis CLIB214 at 50 uM after 2 hrs by microarray based transcriptional profiling relative to control
Candida parapsilosis [25] = assay: Decrease in CGD gene ortholog accession number orf19.7631 expression in Candida parapsilosis CLIB214 at 50 uM after 2 hrs by microarray based transcriptional profiling relative to control
Candida parapsilosis [26] = assay: Increase in CGD gene ortholog accession number orf19.4044 expression in Candida parapsilosis CLIB214 at 50 uM after 2 hrs by microarray based transcriptional profiling relative to control
Candida parapsilosis [27] = assay: Increase in GenBank accession number NP_943634.1 expression in Candida parapsilosis CLIB214 at 50 uM after 2 hrs by microarray based transcriptional profiling relative to control
Candida parapsilosis [28] = assay: Increase in CGD gene ortholog accession number orf19.1755 expression in Candida parapsilosis CLIB214 at 50 uM after 2 hrs by microarray based transcriptional profiling relative to control
Candida parapsilosis [29] = assay: Increase in CSP37 gene expression in Candida parapsilosis CLIB214 at 50 uM after 2 hrs by microarray based transcriptional profiling relative to control
Candida parapsilosis [30] = assay: Increase in CYS4 gene expression in Candida parapsilosis CLIB214 at 50 uM after 2 hrs by microarray based transcriptional profiling relative to control
Candida parapsilosis [31] = assay: Decrease in CGD gene ortholog accession number orf19.3060 expression in Candida parapsilosis CLIB214 at 50 uM after 2 hrs by microarray based transcriptional profiling relative to control
Candida parapsilosis [32] = assay: Increase in CGD gene ortholog accession number orf19.4907 expression in Candida parapsilosis CLIB214 at 50 uM after 2 hrs by microarray based transcriptional profiling relative to control
Candida parapsilosis [33] = assay: Decrease in CGD gene ortholog accession number orf19.101 expression in Candida parapsilosis CLIB214 at 50 uM after 2 hrs by microarray based transcriptional profiling relative to control
Candida parapsilosis [34] = assay: Decrease in CGD gene ortholog accession number orf19.6488 expression in Candida parapsilosis CLIB214 at 50 uM after 2 hrs by microarray based transcriptional profiling relative to control
Candida parapsilosis [35] = assay: Decrease in CTN1 gene expression in Candida parapsilosis CLIB214 at 50 uM after 2 hrs by microarray based transcriptional profiling relative to control
Candida parapsilosis [36] = assay: Decrease in CGD gene ortholog accession number orf19.1723 expression in Candida parapsilosis CLIB214 at 50 uM after 2 hrs by microarray based transcriptional profiling relative to control

SMILES: CC(C)=CCC/C(C)=C/CC/C(C)=C/CO [FARNESOL]
- fold change (FC) (Candida parapsilosis [1]): 1.61
- fold change (FC) (Candida parapsilosis [2]): 2.74
- fold change (FC) (Candida parapsilosis [3]): 1.89
- fold change (FC) (Candida parapsilosis [4]): 1.56
- fold change (FC) (Candida parapsilosis [5]): 2.36
- fold change (FC) (Candida parapsilosis [6]): 1.52
- fold change (FC) (Candida parapsilosis [7]): 1.82
- fold change (FC) (Candida parapsilosis [8]): 1.75
- fold change (FC) (Candida parapsilosis [9]): 1.69
- fold change (FC) (Candida parapsilosis [10]): 1.5
- fold change (FC) (Candida parapsilosis [11]): 1.82
- fold change (FC) (Candida parapsilosis [12]): 1.99
- fold change (FC) (Candida parapsilosis [13]): 1.54
- fold change (FC) (Candida parapsilosis [14]): 1.96
- fold change (FC) (Candida parapsilosis [15]): 1.51
- fold change (FC) (Candida parapsilosis [16]): 1.83
- fold change (FC) (Candida parapsilosis [17]): 1.77
- fold change (FC) (Candida parapsilosis [18]): 1.55
- fold change (FC) (Candida parapsilosis [19]): 1.63
- fold change (FC) (Candida parapsilosis [20]): 2.13
- fold change (FC) (Candida parapsilosis [21]): 1.55
- fold change (FC) (Candida parapsilosis [22]): 1.68
- fold change (FC) (Candida parapsilosis [23]): 1.72
- fold change (FC) (Candida parapsilosis [24]): 1.79
- fold change (FC) (Candida parapsilosis [25]): 1.74
- fold change (FC) (Candida parapsilosis [26]): 1.56
- fold change (FC) (Candida parapsilosis [27]): 3.03
- fold change (FC) (Candida parapsilosis [28]): 1.76
- fold change (FC) (Candida parapsilosis [29]): 1.98
- fold change (FC) (Candida parapsilosis [30]): 2.1
- fold change (FC) (Candida parapsilosis [31]): 1.54
- fold change (FC) (Candida parapsilosis [32]): 1.76
- fold change (FC) (Candida parapsilosis [33]): 1.82
- fold change (FC) (Candida parapsilosis [34]): 1.83
- fold change (FC) (Candida parapsilosis [35]): 1.55
- fold change (FC) (Candida parapsilosis [36]): 1.83
